Article PMC10700139 (Nature, 2023)
Values joined by “and” are separate entries in the source; they are usually repeats but may differ in a detail not shown here. Identical values can stand only once.

Columns and labels:
[1] = test system: Nicotiana benthamiana leaves; assay: Transient co-expression of biosynthetic genes in N. benthamiana leaves, metabolite ion abundance by LC-MS
[2] = test system: PtCAL-1a/PtCAL-2a; assay: In vitro reactions with apoplastic PtCAL-1a/PtCAL-2a (formation of 9, decarboxylation of 3, Zn chelator); assay type: biochemical; conditions: for ratio of 4 ion abundance (m/z 142.1226) to that of 3 (m/z 186.1125): GFP +3; for ion abundance of 9 (m/z 164.1434) over time: GFP, +3, +8
Source text: The three CAL proteins identified in this study have predicted N-terminal signal peptides, which were identified using the TargetP-2.0 server (https://services.healthtech.dtu.dk/service.php?TargetP-2.0)[58]. […] To assess this possibility, CAL genes with or without C-terminal 6xHis tags were transiently expressed in N. benthamiana, as described above. Each CAL gene was expressed individually; also, PtCAL-1a and PtCAL-2a were transiently co-expressed in the same leaf because we had found them to cofunction in Lycopodium alkaloid biosynthesis. At 4 days after Agrobacterium infiltration, apoplast protein extracts were isolated using the infiltration–centrifugation method, much as previously described. Two leaves per reaction were excised from the plant and submerged in ice-cold apoplast extraction buffer (100 mM MES, 300 mM NaCl, pH 5.5) in an open-capped 50 ml Falcon tube and these tubes were placed in a plastic vacuum chamber attached to a Welch Model 2025 vacuum pump. The chamber was brought down to full vacuum and after 2 min at this pressure, the vacuum was slowly released to allow for buffer to infiltrate the leaf apoplastic space. Buffer-infiltrated leaves were carefully removed from the Falcon tubes, blotted dry with paper towels and were then rolled into Parafilm and placed in a plungerless 5 ml plastic syringe. The syringe was placed in a 15 ml Falcon tube and this was then centrifuged at 1,000g and 4 °C for 10 min to collect apoplast extract. The resulting extract was centrifuged at 10,000g and 4 °C for 15 min to pellet any larger cellular debris and the supernatant was concentrated using an Amicon Ultra-4 Centrifugal Filter Unit (10 kDA MWCO, MilliporeSigma UFC501024). Protein concentrations were measured using the BIO-RAD Protein Assay or Bradford assay (Abcam 119216) and adjusted with apoplast extraction buffer to a final concentration between 0.5 and 1.5 mg ml^−1. Aliquots of the extracts were snap frozen in liquid nitrogen and stored at −80 °C.
Reactions with CAL-enriched apoplast were routinely performed in low-pH potassium phosphate buffer (50 mM potassium phosphate, 100 mM NaCl, pH 5.9) at a volume of 20 µl. For PtCAL-1a/PtCAL-2a, these reactions contained approximately 1.4 µg of apoplast protein for each CAL (final concentration of 0.07 µg µl^−1). Control reactions used apoplast from leaves expressing only one CAL or with apoplast generated from GFP-expression N. benthamiana leaves. The requisite substrates for this reaction were generated through the activities of in vitro PtPIKS-1 and PtCYP782C1 enzyme reactions. […]. To generate 3 and 4 as potential substrates, 1 µg of previously purified PtPIKS-1 enzyme[23] and 150 µM 1 and 300 µM malonyl-CoA were added directly to the CAL reaction mixtures. After thorough mixing, reactions were incubated at room temperature. An alternative route for producing 3 and 4 independently of thioester intermediates was achieved by mixing stocks of 1 (10 mM in water) and 2 (10 mM in water; always prepared fresh to minimize compound decomposition) in equal proportion, followed by incubation at room temp for 1–2 h, as these two substrates can non-enzymatically condense to yield 3 (which can spontaneously decarboxylate to produce 4). A 2 µl aliquot of this mixture was then added as a component of the PtCAL-1a/PtCAL-2a enzyme reaction (20 µl total reaction volume) in addition to the PtCYP782C1 microsomal reaction mixture. After predesignated incubation times, reactions were quenched by diluting tenfold into ACN with 0.1% formic acid.
To evaluate the potential decarboxylation of β-keto acid substrates by PtCAL-1/PtCAL-2 and PtCAL-3, only 3 or 2, respectively, were added as substrate. PtCAL-1/PtCAL-2 reactions were quenched by diluting aliquots tenfold into ACN with 0.1% formic acid and were subsequently analysed through HILIC LC–MS. PtCAL-3 reactions were quenched by mixing aliquots with an equal volume of water with 0.2% formic acid and were then analysed through C18 LC–MS. […]

In the case of `CC(=O)C[C@H]1CCCCN1C(C)=O` [NAc-(R)-4], the “ion abundance of NAc-(R)-4 (m/z 184.1332)” value ([1]; pathway to 8) is reported as 1360000 and 1300000 and 1260000 and the “ion abundance of NAc-(R)-4 (m/z 184.1332)” value ([1]; pathway to 8 +CAL-1a/CAL-2a) is reported as 1400000 and 1330000 and 995000.
In the case of `CC(=O)C[C@@H]1CCCCN1C(C)=O` [NAc-(S)-4], the “ion abundance of NAc-(S)-4 (m/z 184.1332)” value ([1]; pathway to 8) is reported as 1410000 and 1300000 and 1220000 and the “ion abundance of NAc-(S)-4 (m/z 184.1332)” value ([1]; pathway to 8 +CAL-1a/CAL-2a) is reported as 1180000 and 902000 and 745000.
`O=C(O)CC(=O)CC1CCCCN1` (centres unmarked) [compound 3, 4-(2-piperidyl)acetoacetic acid] was tested, and the “ratio of 4 ion abundance (m/z 142.1226) to that of 3 (m/z 186.1125)” value (“ratio of 4 ion abundance” for short) ([2]; 0.25 hrs (ED 4g)) was 43.1035 and 48.8982 and 60.4489, the “ratio of 4 ion abundance” value ([2]; 0.5 hrs (ED 4g)) was 50.5262 and 67.5812 and 54.1147 and the “ratio of 4 ion abundance” value ([2]; 1 hrs (ED 4g)) was 56.742 and 49.4225 and 48.9637. For the same compound, the “ratio of 4 ion abundance” value ([2]; 2 hrs (ED 4g)) was 51.4101 and 43.0157 and 54.2008 and the “ion abundance of 3 (m/z 186.1125)” value ([1]; pathway to 8) was 9410896 and 8730072 and 10333652.
`C/C=C/C1=NCCCC1` [compound 8] was tested, and the “ion abundance of 8 (m/z 124.1121)” value ([1]; pathway to 8) was 9638249 and 12521473 and 7967225 and the “ion abundance of 8 (m/z 124.1121)” value ([1]; pathway to 8 +CAL-1a/CAL-2a) was 1222800 and 1037676 and 1210696.
With `CC1CC2=NCCCC2=C(CC2CCCCN2)C1` (centres unmarked) [compound 9] the “ion abundance of 9 (m/z 164.1434) over time” value (shortened to “ion abundance … over time”) ([2]; 0.17 hrs) was 0, the “ion abundance … over time” value ([2]; 0.50 hrs) was 0 and the “ion abundance … over time” value ([2]; 1.00 hrs) was 0. The “ion abundance … over time” value ([2]; 2.00 hrs) was 0, the “ion abundance … over time” value ([2]; 4.00 hrs) was 0 and the “ion abundance … over time” value ([2]; 8.00 hrs) was 0. The “ion abundance … over time” value ([2]; 20.00 hrs) was 0, the “ion abundance … over time” value ([2]; 24.00 hrs) was 0 and the “ion abundance … over time” value ([2]; +PtCAL-3, 0.17 hrs) was 0. For the same compound, the “ion abundance … over time” value ([2]; +PtCAL-3, 0.50 hrs) was 0, the “ion abundance … over time” value ([2]; +PtCAL-3, 1.00 hrs) was 0 and the “ion abundance … over time” value ([2]; +PtCAL-3, 2.00 hrs) was 0. The “ion abundance … over time” value ([2]; +PtCAL-3, 4.00 hrs) was 0, the “ion abundance … over time” value ([2]; +PtCAL-3, 8.00 hrs) was 0 and the “ion abundance … over time” value ([2]; +PtCAL-3, 20.00 hrs) was 0. For the same compound, the “ion abundance … over time” value ([2]; +PtCAL-3, 24.00 hrs) was 0, the “ion abundance of 9 (m/z 164.1434)” value ([1]; pathway to 8) was 0 and the “ion abundance of 9 (m/z 164.1434)” value ([1]; pathway to 8 +CAL-1a/CAL-2a) was 8024968 and 9400279 and 8191081.
